These are yes or no findings as the source states them, for the method shown. Some entries that bind do so weakly or less than the wild type.
Assays:
[1] = molecular target: T1, Lactobacillus acidophilus surface layer protein A (SlpA), purified from strain NCK2187 (Lactobacillus acidophilus) (UniProt P35829); assay: flow cytometry of SlpA-coated beads with hFc fusion proteins
T1 sequence: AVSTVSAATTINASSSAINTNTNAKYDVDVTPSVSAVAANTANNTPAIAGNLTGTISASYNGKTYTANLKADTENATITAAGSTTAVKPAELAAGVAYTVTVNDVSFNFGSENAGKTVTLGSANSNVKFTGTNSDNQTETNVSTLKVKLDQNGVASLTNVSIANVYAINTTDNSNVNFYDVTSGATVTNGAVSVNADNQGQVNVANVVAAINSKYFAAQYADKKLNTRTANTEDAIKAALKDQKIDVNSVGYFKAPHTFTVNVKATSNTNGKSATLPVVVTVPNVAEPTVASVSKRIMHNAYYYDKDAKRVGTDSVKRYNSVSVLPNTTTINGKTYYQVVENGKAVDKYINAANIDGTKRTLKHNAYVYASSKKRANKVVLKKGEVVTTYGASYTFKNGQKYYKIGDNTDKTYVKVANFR

The chains behind the UniProt entries cited, without tags or fusion partners. Where a name states a change or a piece, a line headed by the entry shows the natural chain unless it says otherwise.
UniProt Q91ZW8: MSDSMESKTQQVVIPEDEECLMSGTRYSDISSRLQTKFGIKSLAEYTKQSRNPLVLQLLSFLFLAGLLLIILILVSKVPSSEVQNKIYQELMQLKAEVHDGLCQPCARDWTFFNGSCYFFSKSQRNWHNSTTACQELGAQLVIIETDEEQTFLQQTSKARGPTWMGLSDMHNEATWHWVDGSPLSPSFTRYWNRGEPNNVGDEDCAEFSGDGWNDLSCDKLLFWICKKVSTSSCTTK

[2] = molecular target: T1, Lactobacillus acidophilus surface layer protein A (SlpA), purified from strain NCK2187 (Lactobacillus acidophilus); assay: flow cytometry of SlpA-coated beads with SIGNR3-hFc (FIG. 5B)

binding [1]: binds
binding [2]: binds
Substance: SIGNR3-hFc (extracellular region of murine SIGNR3 fused to the Fc part of human IgG1) (from UniProt Q91ZW8 76-237; P01857 104-330) (Fc fusion)
